# Data taken from EP0461696 (dated 1993).
# Test: peptide synthesis
# Details: purification step, acid addition salt
substance,measurement,setting,value
H-[Met(O2)]EHF[dK]F-OH,final HPLC purity,"HPLC (HP1090M), peak area percent",99.3%
same,step yield,crystallisation yield,40 to 50%

# [ ]: non-standard residue; d: D form. Met(O2) = CS(=O)(=O)CC[C@H](N)C(=O)O
